US20170015718A1, “PRO-APOPTOTIC RAS AND RAF PEPTIDES” (UNIVERSITE PIERRE ET MARIE CURIE (PARIS 6), priority 2013, published 2017)
These are yes or no findings as the source states them, for the method shown. Some entries that bind do so weakly or less than the wild type.

Biological target: K-Ras protein (purified; murine Ras protein) (murine) (UniProt P32883)
Experiment: cellulose-bound overlapping dodecapeptides probed with purified protein, antibody, ECL

Row | Binder | binding
1 | MEHIQGAWKTISNGFGLK [Raf1 peptide …] | binds
2 | HEHKGKKARLDWNTDAAS [Raf2 peptide …] | binds
